Legend:
Vero cells = assay: Vero cell toxicity assay (Alamar Blue); conditions: TC50 (Vero) to IC50 (anti-T. cruzi) ratio
HepG2 cells = assay: HepG2 cell toxicity assay (Alamar Blue); conditions: TC50 (HepG2) to IC50 (anti-T. cruzi) ratio
[1] = test system: T. cruzi intracellular amastigote forms; assay: Anti-amastigote specific activity assay (Vero host cells); assay type: cell-based, Trypanosoma cruzi

O=C(Cn1ccnc1[N+](=O)[O-])NCc1ccccc1 [BNZ, benznidazole, reference compound]
SI, Vero cell toxicity assay (Vero cells): 111.15 | SI, HepG2 cell toxicity assay (HepG2 cells): 108.18

O=C1N[C@@H]2C(=C[C@H](O)[C@@H](O)[C@H]2O)c2cc3c(c(O)c21)OCO3 [Narciclasine, narciclasine]
SI, Vero cell toxicity assay (Vero cells): 1.33 | SI, Vero cell toxicity assay (Vero cells; listed as narciclasine): < 10 | SI, HepG2 cell toxicity assay (HepG2 cells): 5.52 | SI, HepG2 cell toxicity assay (HepG2 cells; listed as narciclasine): < 10

COC1C=CC23c4cc5c(cc4CN(CC2O)C3C1)OCO5 (centres unmarked) [Haemanthamine, haemanthamine]
SI, Vero cell toxicity assay (Vero cells): 7.25

CN1CCC2=C[C@H](O)[C@H]3OC(=O)c4cc5c(cc4[C@H]3[C@@H]21)OCO5 [Hippeastrine, hippeastrine]
SI with respect to anti-amastigote activity, against HepG2 cells ([1]; TC50 (HepG2) to anti-amastigote IC50 ratio): 38.69 | SI with respect to anti-amastigote activity, against Vero cells ([1]; TC50 (Vero) to anti-amastigote IC50 ratio): 13.89 | SI, Vero cell toxicity assay (Vero cells): 12.67 | SI, Vero cell toxicity assay (Vero cells; listed as hippeastrine): 12.7 | SI, HepG2 cell toxicity assay (HepG2 cells): 35.29

CO[C@H]1C=C2[C@H]3C[N@@](Cc4cc5c(cc43)OCO5)[C@H]2C[C@@H]1O [Montanine, montanine]
SI, Vero cell toxicity assay (Vero cells): 2.53 | SI, HepG2 cell toxicity assay (HepG2 cells): 23.17

O[C@H]1[C@H]2c3cc4c(cc3CN3CCC(=C[C@@H]1O)[C@H]23)OCO4 [Lycorine, lycorine]
SI, Vero cell toxicity assay (Vero cells): 7.44 | SI, Vero cell toxicity assay (Vero cells; listed as lycorine): < 10 | SI, HepG2 cell toxicity assay (HepG2 cells): 31.24
